Binding data for four molecules are collected here from article PMC9763448.

Experiment in all cases: two-hybrid; yeast two-hybrid; baits in pGBKT7, preys in pGADT7; baits tested for autoactivation and toxicity; growth at four levels of initial concentration; screening in triplicate
One assay addresses T1, PmDAM1 (Prunus mume) (UniProt G1UE19).
T1 sequence: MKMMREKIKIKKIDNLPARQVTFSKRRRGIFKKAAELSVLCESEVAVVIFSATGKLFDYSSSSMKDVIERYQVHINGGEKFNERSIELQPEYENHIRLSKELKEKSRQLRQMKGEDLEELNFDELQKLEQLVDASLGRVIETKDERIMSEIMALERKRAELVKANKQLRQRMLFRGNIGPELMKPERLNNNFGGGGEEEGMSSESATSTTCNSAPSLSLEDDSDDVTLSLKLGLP

The target in another assay is T2, PmDAM5 (Prunus mume) (UniProt G1UE18).
T2 sequence: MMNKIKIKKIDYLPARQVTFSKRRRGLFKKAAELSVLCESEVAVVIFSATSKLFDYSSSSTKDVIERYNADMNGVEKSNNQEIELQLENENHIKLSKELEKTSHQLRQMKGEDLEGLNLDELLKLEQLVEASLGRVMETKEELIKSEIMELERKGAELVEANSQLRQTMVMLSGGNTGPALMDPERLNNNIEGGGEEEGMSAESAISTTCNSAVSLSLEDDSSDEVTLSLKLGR

The target in a further assay is PmSVP1 (Prunus mume).

These are yes or no findings as the source states them, for the method shown. Binding calls can cover weak binding; strength is not graded here.

Regarding PmSVP1 (Prunus mume), the binding entry in the assay with PmDAM1 (Prunus mume) was “binds”; in the assay with PmDAM5 (Prunus mume) it was “binds weakly”.
As to PmSVP2 (Prunus mume), the binding result with PmDAM1 (Prunus mume) and with PmDAM5 (Prunus mume) was “binds” throughout.

B1: PmDAM1 (protein, UniProt G1UE19 1-235)
chain: MKMMREKIKIKKIDNLPARQVTFSKRRRGIFKKAAELSVLCESEVAVVIFSATGKLFDYSSSSMKDVIERYQVHINGGEKFNERSIELQPEYENHIRLSKELKEKSRQLRQMKGEDLEELNFDELQKLEQLVDASLGRVIETKDERIMSEIMALERKRAELVKANKQLRQRMLFRGNIGPELMKPERLNNNFGGGGEEEGMSSESATSTTCNSAPSLSLEDDSDDVTLSLKLGLP
Take B1: the binding entry with PmSVP1 (Prunus mume) is reported as “binds”.

B2: PmDAM5 (protein, UniProt G1UE18 1-234)
chain: MMNKIKIKKIDYLPARQVTFSKRRRGLFKKAAELSVLCESEVAVVIFSATSKLFDYSSSSTKDVIERYNADMNGVEKSNNQEIELQLENENHIKLSKELEKTSHQLRQMKGEDLEGLNLDELLKLEQLVEASLGRVMETKEELIKSEIMELERKGAELVEANSQLRQTMVMLSGGNTGPALMDPERLNNNIEGGGEEEGMSAESAISTTCNSAVSLSLEDDSSDEVTLSLKLGR
On to B2, for which the binding result in the assay with PmSVP1 (Prunus mume) is listed as “binds”.
